{"source": "PubChem BioAssay AID652272 (Drosophila RNAi Screening Center, 2013)", "purpose": "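Genes whose knock-down decreases or increases Hedgehog reporter output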 (primary screen)", "cell system": "Drosophila clone 8 (Cl8) cells", "reagents": "long dsRNA against Drosophila genes", "detection": "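Firefly light from a Hedgehog-responsive ptc promoter reporter and Renilla reference light, both read on a plate reader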", "scale": "firefly Hh reporter signal: higher = more ptc reporter light; Renilla reference signal: higher = more Renilla control light", "call rule": "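Called a hit if the two-replicate mean z-score lies below -2 or above +3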", "calls": "active = hit: reporter lowered or raised; inactive = not a hit", "note": "The screen tested about 21,000 reagents; this is a random part of those that have a named target and a result. Of all reagents, 503 (2.4%) got an active call. 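Raw plate light values, not normalised; calls rest on replicate z-scores that were not deposited; hits include reporter decreases as well as increases.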 A number with no mark means an inactive call. Names joined by + are all predicted targets of the reagent. Not given: the amount of reagent, the time to read-out."}
{"predicted target": "CG17005", "DRSC id": "DRSC02556", "firefly Hh reporter signal, replicate 1": 66115, "firefly Hh reporter signal, replicate 2": 49962, "Renilla reference signal, replicate 1": 2504, "Renilla reference signal, replicate 2": 4755}
{"predicted target": "Tapdelta", "DRSC id": "DRSC05946", "firefly Hh reporter signal, replicate 1": 77570, "firefly Hh reporter signal, replicate 2": 56976, "Renilla reference signal, replicate 1": 3680, "Renilla reference signal, replicate 2": 2116}
{"predicted target": "CG14104", "DRSC id": "DRSC10106", "firefly Hh reporter signal, replicate 1": 1.04e5, "firefly Hh reporter signal, replicate 2": 1.27e5, "Renilla reference signal, replicate 1": 3900, "Renilla reference signal, replicate 2": 3789}
{"predicted target": "mod(mdg4) + pre-mod(mdg4)-U", "DRSC id": "DRSC13476", "firefly Hh reporter signal, replicate 1": 50128, "firefly Hh reporter signal, replicate 2": 1.71e5, "Renilla reference signal, replicate 1": 11299, "Renilla reference signal, replicate 2": 3970}
{"predicted target": "uncNacbeta", "DRSC id": "DRSC00326", "firefly Hh reporter signal, replicate 1": 1.12e5, "firefly Hh reporter signal, replicate 2": 1.19e5, "Renilla reference signal, replicate 1": 2265, "Renilla reference signal, replicate 2": 2691}
{"predicted target": "CG4733", "DRSC id": "DRSC15634", "firefly Hh reporter signal, replicate 1": 6.05e5, "firefly Hh reporter signal, replicate 2": 1.20e5, "Renilla reference signal, replicate 1": 30397, "Renilla reference signal, replicate 2": 3072}
{"predicted target": "Cpr62Ba", "DRSC id": "DRSC08403", "firefly Hh reporter signal, replicate 1": 64229, "firefly Hh reporter signal, replicate 2": 58071, "Renilla reference signal, replicate 1": 2858, "Renilla reference signal, replicate 2": 4183}
{"predicted target": "bbc", "DRSC id": "DRSC06958", "firefly Hh reporter signal, replicate 1": 1.84e5, "firefly Hh reporter signal, replicate 2": 7.71e5, "firefly Hh reporter signal, replicate 3": 1.03e5, "Renilla reference signal, replicate 1": 7744, "Renilla reference signal, replicate 2": 44280}
{"predicted target": "CG10321", "DRSC id": "DRSC04061", "firefly Hh reporter signal, replicate 1": 4.96e5, "firefly Hh reporter signal, replicate 2": 95072, "Renilla reference signal, replicate 1": 4188, "Renilla reference signal, replicate 2": 4188}
{"predicted target": "ND-23", "DRSC id": "DRSC15526", "firefly Hh reporter signal, replicate 1": 96853, "firefly Hh reporter signal, replicate 2": 84151, "Renilla reference signal, replicate 1": 3347, "Renilla reference signal, replicate 2": 3138}
{"predicted target": "Ddc", "DRSC id": "DRSC03314", "firefly Hh reporter signal, replicate 1": 86914, "firefly Hh reporter signal, replicate 2": 57673, "Renilla reference signal, replicate 1": 2076, "Renilla reference signal, replicate 2": 4992}
{"predicted target": "CG7747", "DRSC id": "DRSC07038", "firefly Hh reporter signal, replicate 1": 1.11e5, "firefly Hh reporter signal, replicate 2": 78973, "Renilla reference signal, replicate 1": 4880, "Renilla reference signal, replicate 2": 3834}
{"predicted target": "CG12713", "DRSC id": "DRSC09900", "firefly Hh reporter signal, replicate 1": 92343, "firefly Hh reporter signal, replicate 2": 47232, "Renilla reference signal, replicate 1": 3757, "Renilla reference signal, replicate 2": 1826}
{"predicted target": "nudE", "DRSC id": "DRSC09000", "firefly Hh reporter signal, replicate 1": 1.64e5, "firefly Hh reporter signal, replicate 2": 3.09e5, "Renilla reference signal, replicate 1": 4901, "Renilla reference signal, replicate 2": 12659}
{"predicted target": "nudE", "DRSC id": "DRSC10962", "firefly Hh reporter signal, replicate 1": 30636, "firefly Hh reporter signal, replicate 2": 42573, "firefly Hh reporter signal, replicate 3": 52762, "Renilla reference signal, replicate 1": 3187, "Renilla reference signal, replicate 2": 3296}
{"predicted target": "MED31", "DRSC id": "DRSC12142", "firefly Hh reporter signal, replicate 1": 91812, "firefly Hh reporter signal, replicate 2": 64816, "Renilla reference signal, replicate 1": 3346, "Renilla reference signal, replicate 2": 1895}
{"predicted target": "Vps39", "DRSC id": "DRSC16205", "firefly Hh reporter signal, replicate 1": 1.56e5, "firefly Hh reporter signal, replicate 2": 1.17e5, "Renilla reference signal, replicate 1": 5824, "Renilla reference signal, replicate 2": 4297}
{"predicted target": "CG4744", "DRSC id": "DRSC06887", "firefly Hh reporter signal, replicate 1": 72604, "firefly Hh reporter signal, replicate 2": 73958, "Renilla reference signal, replicate 1": 3682, "Renilla reference signal, replicate 2": 3173}
{"predicted target": "CG32603", "DRSC id": "DRSC19409", "firefly Hh reporter signal, replicate 1": 1.20e5, "firefly Hh reporter signal, replicate 2": 3.21e5, "Renilla reference signal, replicate 1": 2044, "Renilla reference signal, replicate 2": 14216}
{"predicted target": "CG13795", "DRSC id": "DRSC02299", "firefly Hh reporter signal, replicate 1": 1.15e5, "firefly Hh reporter signal, replicate 2": 58994, "Renilla reference signal, replicate 1": 2397, "Renilla reference signal, replicate 2": 6024}
{"predicted target": "CG31327", "DRSC id": "DRSC13019", "firefly Hh reporter signal, replicate 1": 35847, "firefly Hh reporter signal, replicate 2": 1.62e5, "Renilla reference signal, replicate 1": 7376, "Renilla reference signal, replicate 2": 3184}

Records above whose target name starts with M or m (2):
{"predicted target": "mod(mdg4) + pre-mod(mdg4)-U", "DRSC id": "DRSC13476", "firefly Hh reporter signal, replicate 1": 50128, "firefly Hh reporter signal, replicate 2": 1.71e5, "Renilla reference signal, replicate 1": 11299, "Renilla reference signal, replicate 2": 3970}
{"predicted target": "MED31", "DRSC id": "DRSC12142", "firefly Hh reporter signal, replicate 1": 91812, "firefly Hh reporter signal, replicate 2": 64816, "Renilla reference signal, replicate 1": 3346, "Renilla reference signal, replicate 2": 1895}
